# Source: PubChem BioAssay AID2685 (National Center for Advancing Translational Sciences (NCATS), 2010)
# This is one part of the list. These are further read-outs of the screen, such as a control signal, another cell line or another target. No call is given for them. Most of these compounds were active or inconclusive in the main read-out, so they are no random draw. Potencies come from curve fits of mixed quality, noted in brackets.
# Test: qHTS Assay for Lipid Storage Modulators in Drosophila S3 Cells;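 for cell number change: cells counted by Cell Tracker Red CMTPX staining in the red channel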
# Settings: BODIPY lipid droplet fluorescence, 18-24 h; for cell number change: measured here: cell count max response, cells fed with added oleic acid
# How it was run: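 Drosophila S3 cells loaded with oleic acid (400 uM, as added) and compounds at several concentrations; lipid droplets imaged by 488-nm laser-scanning cytometry, 500–530 nm intensity and object ratio to cell channel. Percent activity normalized to 20 uM Triacsin C.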
# [1] = measured here: cell number channel AC50, cells fed with added oleic acid
# [2] = measured here: lipid fluorescence (Fed channel) AC50, cells fed with added oleic acid
compound,measurement,setting,value
O=c1c2cnn(-c3ccc(F)cc3)c2ncn1Cc1ccccn1,cell number change,,86.4%
same,AC50,[1],"7310 nM [rising, partial curve]"
same,AC50,[2],"5170 nM [rising, partial curve]"
CCc1nnc(NC(=O)c2cccc(S(=O)(=O)N3CCN(C(C)=O)CC3)c2)s1,cell number change,,13.3%
same,AC50,[2],"366 nM [rising, partial curve, poor fit]"
O=C(C1Cc2ccccc2CN1S(=O)(=O)c1ccc(F)cc1)N1CCCCC1 (stereo unspecified),cell number change,,7.61%
same,AC50,[2],"14600 nM [rising, single point]"
Cc1ccc(NC(=O)C2CC(=O)N(Cc3ccccc3)C2)nc1 (stereo unspecified),cell number change,,14.1%
Cc1nc(C(=O)NCc2ccccc2)sc1C1(C)CC(c2cccc([N+](=O)[O-])c2)=NO1 (stereo unspecified),cell number change,,4.01%
COc1ccc(-c2nnc(SCC(=O)N(C)C3CCS(=O)(=O)C3)n2N)cc1OC (stereo unspecified),cell number change,,-24.3%
same,AC50,[2],"25900 nM [falling, single point]"
COc1ccc(N2CCN(c3nc4ccccc4n3CC(=O)c3ccccc3)CC2)cc1,cell number change,,-0.559%
same,AC50,[2],"2310 nM [rising, single point]"
O=C(Nc1ccc(F)c(Cl)c1)Nc1cnccn1,cell number change,,-7.75%
same,AC50,[2],"3260 nM [falling, single point]"
Nc1ccn([C@@H]2O[C@H](CO)[C@@H](O)[C@@H]2O)c(=O)n1,cell number change,,33.8%
same,AC50,[1],"820 nM [rising, full curve, poor fit]"
same,AC50,[2],"651 nM [rising, full curve, poor fit]"
Cc1ccc(-c2nc(C(=O)NCCCN3CCOCC3)cc3c2[nH]c2ccccc23)cc1,cell number change,,-12.4%
same,AC50,[2],"14600 nM [falling, partial curve, poor fit]"
O=S(=O)(c1ccc(=S)[nH]c1)N1CCCCCC1,cell number change,,-7.16%
same,AC50,[2],"29100 nM [rising, single point]"
COc1ccc(S(=O)(=O)N(CCc2ccccc2)CC(=O)N/N=C/c2ccc3c(c2)OCO3)cc1,AC50,[1],"411 nM [falling, single point]"
COC(=O)c1c(C(=O)NCc2ccccc2)ncn1CC(O)COc1ccccc1 (stereo unspecified),cell number change,,-0.97%
O=C1c2ccccc2S(=O)(=O)N1CC1CC(c2ccc(Cl)cc2)=NO1 (stereo unspecified),cell number change,,32.7%
same,AC50,[1],"14600 nM [rising, single point]"
same,AC50,[2],"18400 nM [rising, partial curve]"
COc1ccc(C(=O)NNC(=O)Cn2nnc(-c3ccc(OC)c(OC)c3)n2)cc1,cell number change,,-55.4%
same,AC50,[1],"231 nM [falling, full curve]"
same,AC50,[2],"184 nM [falling, full curve]"
CCn1c(SCC(=O)C(C)(C)C)nnc1-c1ccccc1OC,cell number change,,9.01%
same,AC50,[2],"4610 nM [falling, single point]"
Cc1ccc(S(=O)(=O)NC(=O)NCCCCNC(=O)NS(=O)(=O)c2ccc(C)cc2)cc1,cell number change,,18.1%
same,AC50,[2],"259 nM [rising, partial curve]"
O=c1nc(Nc2ccccc2)oc2ccccc12,AC50,[1],"461 nM [rising, single point]"
COc1c2ccoc2c(OC[C@@H](O)C(C)(C)O)c2oc(=O)ccc12,cell number change,,6.66%
same,AC50,[2],"820 nM [rising, partial curve, poor fit]"
CN(CC(=O)NCCCc1ccccc1)S(=O)(=O)c1ccc(Br)cc1,cell number change,,-5.77%
same,AC50,[2],"5800 nM [falling, partial curve, poor fit]"
CCOc1ccccc1NC(=O)NNS(=O)(=O)c1ccc([N+](=O)[O-])cc1,cell number change,,-1.98%
same,AC50,[2],"29100 nM [rising, single point]"
COc1ccccc1OCc1csc(NC(=O)c2ccco2)n1,cell number change,,7.45%
same,AC50,[1],"2910 nM [rising, single point]"
same,AC50,[2],"6510 nM [rising, single point]"
CN(C(=O)c1cccc(C#N)c1)c1nnc(-c2ccccn2)s1,cell number change,,28.2%
same,AC50,[2],"5.17 nM [rising, full curve, poor fit]"
CC(=O)N1N=C(c2c(-c3ccccc3)c3cc(Br)ccc3[nH]c2=O)CC1c1ccco1 (stereo unspecified),cell number change,,13.3%
same,AC50,[2],"920 nM [rising, full curve, poor fit]"
O=c1[nH][nH]c(-c2ccccc2O)c1C(C[N+](=O)[O-])c1cccc(Cl)c1 (stereo unspecified),cell number change,,33.3%
same,AC50,[1],"4110 nM [rising, full curve, poor fit]"
C/C(=N/OCC(=O)Nc1ccc(C)cc1C)c1cccs1,cell number change,,39.3%
same,AC50,[1],"291 nM [rising, full curve, poor fit]"
Cc1cc(=O)n2nc(-c3ccc(C(F)(F)F)cc3)sc2n1,cell number change,,31.4%
same,AC50,[1],"2060 nM [rising, full curve]"
same,AC50,[2],"65.1 nM [rising, full curve, poor fit]"
Cc1[nH][nH]c(=O)c1C(c1ccc(-c2ccc(F)cc2)o1)c1c(C)[nH][nH]c1=O,cell number change,,-20.5%
same,AC50,[2],"1300 nM [falling, full curve]"
CC(C)c1ccc2c(c1)C1Cc3ccccc3C1N2 (stereo unspecified),AC50,[2],"2310 nM [falling, partial curve, poor fit]"
CCOc1ccc(S(=O)(=O)N2CCC(C(=O)N3CCc4ccccc4C3)CC2)cc1,AC50,[2],"29100 nM [falling, single point]"
Cc1cc(C)n2nc(SCC(=O)c3c(N)n(CC(C)C)c(=O)n(C)c3=O)nc2n1,cell number change,,0.137%
CCN1c2ccccc2-c2nc3ccccc3n2C1c1cccnc1 (stereo unspecified),cell number change,,11.6%
same,AC50,[2],"73.1 nM [rising, full curve, poor fit]"
CCOC(=O)C1CCN(S(=O)(=O)c2c(C)[nH]c(C)c2C(=O)N2CCCCC2)CC1,AC50,[1],"130 nM [rising, full curve, poor fit]"
COc1ccc(C(C)NC(=O)c2ccc(Br)cc2)cc1OC (stereo unspecified),cell number change,,61.5%
same,AC50,[1],"14600 nM [rising, partial curve, poor fit]"
same,AC50,[2],"29100 nM [rising, single point]"
O=C(NCc1ccccc1)c1ccc2c(c1)OCCO2,cell number change,,-0.771%
CCSc1ccccc1C(=O)NCCc1ccccc1,cell number change,,4.14%
CC(Cc1ccccn1)NC(=O)c1ccc(OC2CCN(Cc3ccccn3)CC2)cc1 (stereo unspecified),cell number change,,-15.4%
same,AC50,[2],"32600 nM [falling, partial curve, poor fit]"
NC(N)=N/N=C/c1cccc(Cl)c1Cl,cell number change,,61.8%
same,AC50,[1],"20600 nM [rising, single point]"
same,AC50,[2],"731 nM [rising, single point]"
CC(C)CC(=O)N1CCN(Cc2ccc(C(F)(F)F)cc2)CC1,cell number change,,-3.57%
same,AC50,[2],"2060 nM [rising, partial curve]"
Cc1ccc2c(CN3CCCCC3C)cc(=O)oc2c1 (stereo unspecified),cell number change,,38.9%
same,AC50,[1],"14600 nM [rising, partial curve, poor fit]"
same,AC50,[2],"580 nM [rising, single point]"
Cn1c(=O)c2c(SCc3ccccn3)nc(CC(C)(C)C)nc2n(C)c1=O,AC50,[1],"1640 nM [rising, partial curve]"
same,AC50,[2],"1840 nM [rising, partial curve]"
NC(=O)Cn1c(=O)oc2ccccc21,cell number change,,-42.7%
same,AC50,[1],"13000 nM [falling, partial curve]"
same,AC50,[2],"651 nM [falling, single point]"
CCN(C(=O)CSc1nnc(C)n1-c1cccc(C)c1)C1CCS(=O)(=O)C1 (stereo unspecified),AC50,[2],"29100 nM [falling, single point]"
Cc1ccccc1C1=Nn2c(nnc2-c2ccco2)SC1,AC50,[2],"366 nM [rising, single point]"
CCN(CC)S(=O)(=O)c1ccc(NC(=O)c2ccc(CN3CCOCC3)cc2)cc1,AC50,[2],"2310 nM [falling, partial curve, poor fit]"
COc1ccc(CNC(=O)c2ccc3ccccc3n2)cc1OC,cell number change,,-9.52%
O=C(CS(=O)(=O)Cc1ccccc1)Nc1ccc(S(=O)(=O)N2CCCCCC2)cc1,cell number change,,11%
same,AC50,[2],"16400 nM [falling, partial curve]"
O=C(NCCN1C(=O)S/C(=C\c2ccc(OC(F)F)cc2)C1=O)[C@@H]1CCCN1C(=O)c1cccs1,cell number change,,-8.67%
same,AC50,[2],"11600 nM [falling, single point]"
COc1cccc(/C=N/n2c(-c3ccco3)nc3ccccc3c2=O)c1,cell number change,,-33.9%
same,AC50,[1],"32600 nM [falling, single point]"
same,AC50,[2],"32600 nM [falling, single point]"
COc1ccc2[nH]c(=O)c(COC(=O)c3ccco3)cc2c1,cell number change,,95.3%
same,AC50,[1],"29100 nM [rising, single point]"
CNS(=O)(=O)c1cccc(C(=O)OCC(=O)N(CCC#N)c2ccccc2)c1,cell number change,,-30.5%
same,AC50,[1],"2310 nM [falling, partial curve, poor fit]"
same,AC50,[2],"164 nM [falling, full curve, poor fit]"
C=CCNC(=O)C1CC(=O)N(c2ccc(OCC(=O)Nc3ccc(OC)cc3)cc2)C1 (stereo unspecified),AC50,[1],"6510 nM [rising, single point]"
NS(=O)(=O)c1ccc(NC(=O)CN2CCCC2)cc1,cell number change,,9.56%
same,AC50,[2],"2590 nM [rising, single point]"
CC1(c2ccc3noc(-c4cccc(F)c4)c3c2)OCCO1,AC50,[2],"29100 nM [rising, single point]"
CC(C)=N/N=C1/NC(=O)C(Cc2ccccc2)S1 (stereo unspecified),cell number change,,1.09%
same,AC50,[2],"731 nM [rising, single point]"
COC(=O)CC1C(C(=O)OC)ON2OC(C(=O)OC)C(C(=O)OC)C12 (stereo unspecified),cell number change,,0.658%
same,AC50,[2],"6510 nM [falling, single point]"
COc1cccc(CN(C)S(=O)(=O)c2cccs2)c1,cell number change,,-38.1%
same,AC50,[1],"23100 nM [falling, single point]"
CCN(c1ccc(NC(=O)CSCc2c(C)noc2C)cc1)C(C)C,cell number change,,0.963%
same,AC50,[2],"920 nM [rising, full curve, poor fit]"

# Retrieved one by one from above:
compound,measurement,setting,value
CCc1nnc(NC(=O)c2cccc(S(=O)(=O)N3CCN(C(C)=O)CC3)c2)s1,AC50,[2],"366 nM [rising, partial curve, poor fit]"
O=C1c2ccccc2S(=O)(=O)N1CC1CC(c2ccc(Cl)cc2)=NO1 (stereo unspecified),cell number change,,32.7%
CCN(C(=O)CSc1nnc(C)n1-c1cccc(C)c1)C1CCS(=O)(=O)C1 (stereo unspecified),AC50,[2],"29100 nM [falling, single point]"
CC(Cc1ccccn1)NC(=O)c1ccc(OC2CCN(Cc3ccccn3)CC2)cc1 (stereo unspecified),AC50,[2],"32600 nM [falling, partial curve, poor fit]"
CCN(c1ccc(NC(=O)CSCc2c(C)noc2C)cc1)C(C)C,cell number change,,0.963%
O=C(Nc1ccc(F)c(Cl)c1)Nc1cnccn1,AC50,[2],"3260 nM [falling, single point]"
COc1ccc(CNC(=O)c2ccc3ccccc3n2)cc1OC,cell number change,,-9.52%
